This is one part of the list.
Assays:
Assay in all cases: protein microarray (ProtoArray v5.0), streptavidin-Alexa Fluor 647
Details in all cases: 3'-biotin; 20 mM Tris (pH 7.5), 5 mM MgCl2, 100 mM KCl, 0.1% Tween-20, A/T-rich and random oligonucleotide blockers; temperature not stated; high values mean tight binding
[1] = system: Uncharacterized protein C11orf74 (human)
[2] = system: Uncharacterized protein C12orf60 (human)
[3] = system: Uncharacterized protein C12orf65 (human)
[4] = system: Uncharacterized protein C15orf39 (human)
[5] = system: Uncharacterized protein C16orf45 (human)
[6] = system: Uncharacterized protein C17orf66 (human)
[7] = system: Uncharacterized protein C18orf1 (human)
[8] = system: Uncharacterized protein C1orf74 (human)
[9] = system: Uncharacterized protein C2orf27 (human)
[10] = system: Uncharacterized protein C2orf57 (human)

GGGAGGCTGAGGCAGG [G4-1 biotinylated (PQS2)]
binding signal [1]: -0.347 z-score
binding signal [2]: -0.358 z-score
binding signal [3]: -0.287 z-score
binding signal [4]: -0.318 z-score
binding signal [5]: -0.328 z-score
binding signal [6]: -0.318 z-score
binding signal [7]: -0.335 z-score
binding signal [8]: -0.308 z-score
binding signal [9]: -0.281 z-score
binding signal [10]: -0.336 z-score

Reference: PMC5996148
